Data published in publication PMC5686942.
These are yes or no findings as the source states them, for the method shown. Binding seen in cells or lysates may run through a third protein. Some results given as binding are weak or reduced against the parent protein; the word gives no strength.

The chains behind the UniProt entries cited, without tags or fusion partners.
UniProt Q01860: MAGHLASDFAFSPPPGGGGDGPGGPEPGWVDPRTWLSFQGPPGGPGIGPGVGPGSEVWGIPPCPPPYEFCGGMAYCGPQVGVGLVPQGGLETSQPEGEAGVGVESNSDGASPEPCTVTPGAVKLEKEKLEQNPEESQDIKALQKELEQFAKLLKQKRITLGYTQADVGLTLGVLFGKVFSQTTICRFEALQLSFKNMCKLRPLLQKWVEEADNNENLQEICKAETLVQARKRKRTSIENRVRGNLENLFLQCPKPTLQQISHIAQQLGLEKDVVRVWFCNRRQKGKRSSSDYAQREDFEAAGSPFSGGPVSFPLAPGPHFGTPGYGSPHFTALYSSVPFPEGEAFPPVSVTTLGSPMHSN

Biological target: OCT4 (human (endogenous in 786-O / A-498 RCC cells)) (UniProt Q01860)
Test: co-IP; immunoprecipitation with OCT4, CBFA2T2 detected; CSCs population of RCC cells; called pull-down assay in the legend; no methods given

binding: binds
B1: CBFA2T2 (protein, UniProt O43439 1-604)
chain: MAKESGISLKEIQVLARQWKVGPEKRVPAMPGSPVEVKIQSRSSPPTMPPLPPINPGGPRPVSFTPTALSNGINHSPPTLNGAPSPPQRFSNGPASSTSSALTNQQLPATCGARQLSKLKRFLTTLQQFGNDISPEIGEKVRTLVLALVNSTVTIEEFHCKLQEATNFPLRPFVIPFLKANLPLLQRELLHCARAAKQTPSQYLAQHEHLLLNTSIASPADSSELLMEVHGNGKRPSPERREENSFDRDTIAPEPPAKRVCTISPAPRHSPALTVPLMNPGGQFHPTPPPLQHYTLEDIATSHLYREPNKMLEHREVRDRHHSLGLNGGYQDELVDHRLTEREWADEWKHLDHALNCIMEMVEKTRRSMAVLRRCQESDREELNYWKRRYNENTELRKTGTELVSRQHSPGSADSLSNDSQREFNSRPGTGYVPVEFWKKTEEAVNKVKIQAMSEVQKAVAEAEQKAFEVIATERARMEQTIADVKRQAAEDAFLVINEQEESTENCWNCGRKASETCSGCNIARYCGSFCQHKDWERHHRLCGQNLHGQSPHGQGRPLLPVGRGSSARSADCSVPSPALDKTSATTSRSSTPASVTAIDTNGL
